In patent US6358921B1, “Antimicrobial peptide compositions and method” (priority 1996, dated 2002):

How the values were obtained:
[1] = system: gram negative microorganisms; type: cell-based; conditions: hemolytic activity/antibiotic activity
Description: (§1) The following bacterial strains were utilized: Escherichia coli UB1005 (wt) and its antibiotic supersusceptible derivative DC2 (Clark, 1984); Excherichia coli SC9251 and its polymixin B rasistant mutant pmrA SC9252 (Peterson, et al., 1987) Pseudomonas aeruginosa H187 (wt) (Angus, et al., 1987) and its antibiotic-sensitive derivative H188 (Zimmerman, W, Antimicrob. Agents Chemother. 18: 94-100, 1980); methicillin sensitive Staphylococcus aureus K147 (Kreiswirth, et al., 1983); Staphylococcus aureus SAP0017, a methicillin resistant clinical isolate from Dr. A. Chow (University of British Columia); Bacillus subtilis, an environmental wt lab strain. Enterococcus faecalis are ATCC 29212 cells and Staphylococcus epidermidis was a clinical isolate from Dr. D. Speert (University of British Columbia). Antifungal activity was tested using a clinical lab isolate of Candida albicans. Salmonella typhinurium C57 and C610 (Fields, P.I., et al., Science 243: 1059-1062 (1989) Corynebacterium xerosis was an environmental isolate (University of British Columbia).
(§2) It is now apparent that agar-based assays severely underestimate antifungal activity as well as activity against gram negative microorganisms (Kondejewski, et al., 1996). Consequently, in the studies reported herein, a liquid-broth method was used to measure the antibiotic properties of the peptides. […] Briefly, cells were grown overnight at 37° C. in LB and diluted in the same medium. Serial dilutions of antibiotics were added to the microtitre plates in a volume of 100 μL followed by 10 μL of bacteria to give a final inoculum of 5×10^5 CFU/mL. Plates were incubated at 37° C. overnight and MICs determined as the lowest antibiotic concentration that inhibited growth.
(§3) The results from antimicrobial and hemolytic assays are combined to provide a “Therapeutic Index” (TI) for each peptide with respect to individual microorganisms. As reported herein, the TI is calculated as the hemolytic activity divided by the antimicrobial activity. The TI thus is a measure of specificity of the particular peptide for microbial membranes as opposed to human blood cell membranes. In the present studies, antimicrobial activities are reported as minimum inhibitory concentrations (MIC)—the lowest concentration of peptide (μg/ml) found to inhibit growth of the particular microbe. Hemolytic activity is reported as the concentration of peptide that effected complete lysis of blood cells after four hours. Thus, in the context of the present invention high TI values indicate microbial specificity and relative lack of toxicity.

[2] = system: gram positive microorganisms; type: cell-based; conditions: hemolytic activity/antibiotic activity
Description: as §1, §2, §3

[3] = system: yeast; type: cell-based; conditions: hemolytic activity/antibiotic activity
Description: as §1, §2, §3

[4] = system: P. aeruginosa H187; type: cell-based, Pseudomonas aeruginosa
Description: as §1, §2, §3

[5] = system: P. aeruginosa H188; type: cell-based, Pseudomonas aeruginosa
Description: as §1
as §2, with “growth. […]” for “growth.”

[6] = system: E. coli UB1005; type: cell-based, Escherichia coli
Description: as §1
as §2, with “growth. […]” for “growth.”

[7] = system: E. coli DC2; type: cell-based, Escherichia coli
Description: as §1, §2, §3

[8] = system: S. typhinurium C587; type: cell-based, Salmonella typhinurium
Description: as §1
as §2, with “growth. […]” for “growth.”

[9] = system: S. typhinurium C610; type: cell-based, Salmonella typhinurium
Description: as §1
as §2, with “growth. […]” for “growth.”

[10] = system: S. aureus K147; type: cell-based, Staphylococcus aureus
Description: as §1, §2, §3

[11] = system: S. aureus SAP0017; type: cell-based, Staphylococcus aureus
Description: as §1, §2, §3

[12] = system: S. epidermidis; type: cell-based, Staphylococcus epidermidis
Description: as §1
as §2, with “growth. […]” for “growth.”

[13] = system: B. subtilis; type: cell-based, Bacillus subtilis
Description: as §1
as §2, with “growth. […]” for “growth.”

[14] = system: E. faecalis; type: cell-based, Enterococcus faecalis
Description: as §1
as §2, with “growth. […]” for “growth.”

[15] = system: C. xeroses; type: cell-based, Corynebacterium xerosis
Description: as §1
as §2, with “growth. […]” for “growth.”

[16] = system: C. Albicans; type: cell-based, Candida albicans
Description: as §1
as §2, with “growth. […]” for “growth.”

**Q.** What does the source list for `CC(C)C[C@@H]1NC(=O)[C@H](CCCN)NC(=O)[C@H](C(C)C)NC(=O)[C@@H]2CCCN2C(=O)[C@@H](Cc2ccccc2)NC(=O)[C@H](CC(C)C)NC(=O)[C@H](CCCN)NC(=O)[C@H](C(C)C)NC(=O)[C@H](CCCN)NC(=O)[C@@H]2CCCN2C(=O)[C@@H](Cc2ccccc2)NC(=O)[C@H](CCCN)NC1=O` [GS12FO, FPVOLOFPOVOL] (cyclo(L[Orn][dF]P[Orn]V[Orn]L[dF]PV[Orn]))?
**A.** Therapeutic index, gram-negative [1]: 10; Therapeutic index, gram-positive [2]: 1.3; Therapeutic index, yeast [3]: 10

**Q.** How did the “Therapeutic index, gram-negative” value [1] turn out when `CC(C)C[C@@H]1NC(=O)[C@H](CCCN)NC(=O)[C@H](CC(C)C)NC(=O)[C@@H]2CCCN2C(=O)[C@@H](Cc2ccccc2)NC(=O)[C@H](CC(C)C)NC(=O)[C@H](CCCN)NC(=O)[C@H](CC(C)C)NC(=O)[C@H](CCCN)NC(=O)[C@@H]2CCCN2C(=O)[C@@H](Cc2ccccc2)NC(=O)[C@H](CCCN)NC1=O` [GS12FO/LL, FPLOLOFPOLOL] (cyclo(L[Orn]L[Orn][dF]P[Orn]L[Orn]L[dF]P)) was run?
**A.** 9.4

**Q.** What about the “Therapeutic index, gram-positive” value [2] of the same compound?
**A.** 4.0

**Q.** What about the “Therapeutic index, yeast” value [3] of the same compound?
**A.** 11

**Q.** Which results are given for `CC(C)C[C@@H]1NC(=O)[C@H](CCCCN)NC(=O)[C@H](C(C)C)NC(=O)[C@@H]2CCCN2C(=O)[C@@H](Cc2ccc(O)cc2)NC(=O)[C@H](CC(C)C)NC(=O)[C@H](CCCCN)NC(=O)[C@H](C(C)C)NC(=O)[C@H](CCCCN)NC(=O)[C@@H]2CCCN2C(=O)[C@@H](Cc2ccc(O)cc2)NC(=O)[C@H](CCCCN)NC1=O` [GS12]?
**A.** Therapeutic index, gram-negative [1]: 7.8; Therapeutic index, gram-positive [2]: 1.0; Therapeutic index, yeast [3]: 6.0

**Q.** Which results are given for `CC(C)C[C@@H]1NC(=O)[C@H](CCCCN)NC(=O)[C@@H]2CCCN2C(=O)[C@@H](Cc2ccc(O)cc2)NC(=O)[C@H](CCCCN)NC(=O)[C@H](C(C)C)NC(=O)[C@H](CCCCN)NC(=O)[C@H](CC(C)C)NC(=O)[C@@H]2CCCN2C(=O)[C@@H](Cc2ccc(O)cc2)NC(=O)[C@H](C(C)C)NC(=O)[C@H](CCCCN)NC1=O` [GS12LV]?
**A.** Therapeutic index, gram-negative [1]: 3.7; Therapeutic index, gram-positive [2]: 0.4; Therapeutic index, yeast [3]: 1.8

**Q.** Which results are given for `CC(C)C[C@@H]1NC(=O)[C@H](CCCCN)NC(=O)[C@H](C(C)C)NC(=O)[C@@H]2CCCN2C(=O)[C@@H](Cc2ccccc2)NC(=O)[C@H](CC(C)C)NC(=O)[C@H](CCCCN)NC(=O)[C@H](C(C)C)NC(=O)[C@H](CCCCN)NC(=O)[C@@H]2CCCN2C(=O)[C@@H](Cc2ccccc2)NC(=O)[C@H](CCCCN)NC1=O` [GS12F]?
**A.** Therapeutic index, gram-negative [1]: 25; Therapeutic index, gram-positive [2]: 3.6; Therapeutic index, yeast [3]: 30

**Q.** Which results are given for `CC(C)C[C@@H]1NC(=O)[C@H](CCCCN)NC(=O)[C@H](C(C)C)NC(=O)[C@H](CCCCN)NC(=O)[C@@H]2CCCN2C(=O)[C@@H](Cc2ccc(O)cc2)NC(=O)[C@H](CCCCN)NC(=O)[C@H](CC(C)C)NC(=O)[C@H](CCCCN)NC(=O)[C@H](C(C)C)NC(=O)[C@@H](CCCCN)NC(=O)[C@@H]2CCCN2C(=O)[C@@H](Cc2ccc(O)cc2)NC(=O)[C@H](CCCCN)NC1=O` [GS14invK1]?
**A.** Therapeutic Index = hemolytic activity/antibacterial activity [4]: 130; Therapeutic Index = hemolytic activity/antibacterial activity [5]: 180; Therapeutic Index = hemolytic activity/antibacterial activity [6]: 65; Therapeutic Index = hemolytic activity/antibacterial activity [7]: 65; Therapeutic Index = hemolytic activity/antibacterial activity [8]: 11; Therapeutic Index = hemolytic activity/antibacterial activity [9]: 260; Therapeutic Index = hemolytic activity/antibacterial activity [10]: <8; Therapeutic Index = hemolytic activity/antibacterial activity [11]: <8; Therapeutic Index = hemolytic activity/antibacterial activity [12]: 16; Therapeutic Index = hemolytic activity/antibacterial activity [13]: <8; Therapeutic Index = hemolytic activity/antibacterial activity [14]: <8; Therapeutic Index = hemolytic activity/antibacterial activity [15]: 260; Therapeutic Index = hemolytic activity/antibacterial activity [16]: 8

**Q.** How did the “Therapeutic Index = hemolytic activity/antibacterial activity” value ([4]; P. aeruginosa H187, Table 2) turn out when `CC(C)C[C@@H]1NC(=O)[C@H](CCCN)NC(=O)[C@H](C(C)C)NC(=O)[C@@H]2CCCN2C(=O)[C@@H](Cc2ccccc2)NC(=O)[C@H](CC(C)C)NC(=O)[C@H](CCCN)NC(=O)[C@H](C(C)C)NC(=O)[C@@H]2CCCN2C(=O)[C@@H](Cc2ccccc2)NC1=O` [GS, cyclo(Val-Orn-Leu-D-Phe-Pro)2, reference compound] (cyclo(V[Orn]L[dF]PV[Orn]L[dF]P)) was run?
**A.** 0.5

**Q.** And the “Therapeutic Index = hemolytic activity/antibacterial activity” value ([5]; P. aeruginosa H188, Table 2)?
**A.** 2

**Q.** And the “Therapeutic Index = hemolytic activity/antibacterial activity” value ([6]; E. coli UB1005, Table 2)?
**A.** 1.4

**Q.** And the “Therapeutic Index = hemolytic activity/antibacterial activity” value ([7]; E. coli DC2, Table 2)?
**A.** 4

**Q.** What about the “Therapeutic Index = hemolytic activity/antibacterial activity” value ([8]; S. typhinurium C587, Table 2) of the same compound?
**A.** 0.7

**Q.** What about the “Therapeutic Index = hemolytic activity/antibacterial activity” value ([9]; S. typhinurium C610, Table 2) of the same compound?
**A.** 1.4

**Q.** What about the “Therapeutic Index = hemolytic activity/antibacterial activity” value [10] of the same compound?
**A.** <0.01

**Q.** What about the “Therapeutic Index = hemolytic activity/antibacterial activity” value ([10]; S. aureus K147, Table 3) of the same compound?
**A.** 8.3

**Q.** What about the “Therapeutic Index = hemolytic activity/antibacterial activity” value [11] of the same compound?
**A.** <0.01

**Q.** What about the “Therapeutic Index = hemolytic activity/antibacterial activity” value ([11]; S. aureus SAP0017, Table 3) of the same compound?
**A.** 8.3

**Q.** What about the “Therapeutic Index = hemolytic activity/antibacterial activity” value [12] of the same compound?
**A.** 0.01

**Q.** And the “Therapeutic Index = hemolytic activity/antibacterial activity” value ([12]; S. epidermidis, Table 3)?
**A.** 8.3

**Q.** What about the “Therapeutic Index = hemolytic activity/antibacterial activity” value [13] of the same compound?
**A.** <0.01

**Q.** What about the “Therapeutic Index = hemolytic activity/antibacterial activity” value ([13]; B. subtilis, Table 3) of the same compound?
**A.** 4

**Q.** What about the “Therapeutic Index = hemolytic activity/antibacterial activity” value [14] of the same compound?
**A.** 1

**Q.** What about the “Therapeutic Index = hemolytic activity/antibacterial activity” value ([14]; E. faecalis, Table 3) of the same compound?
**A.** 4

**Q.** And the “Therapeutic Index = hemolytic activity/antibacterial activity” value [15]?
**A.** 0.2

**Q.** And the “Therapeutic Index = hemolytic activity/antibacterial activity” value ([15]; C. xeroses, Table 3)?
**A.** 16

**Q.** And the “Therapeutic Index = hemolytic activity/antibacterial activity” value [16]?
**A.** 0.01

**Q.** What about the “Therapeutic Index = hemolytic activity/antibacterial activity” value ([16]; C. Albicans, Table 3) of the same compound?
**A.** 3.1

Like-named read-outs stand apart in the source and are kept apart here. Where a SMILES comes first, the peptide text is derived from it. [ ]: non-standard residue; d: D form. Orn = NCCC[C@H](N)C(=O)O
